Source: US11992473B2, “Compositions and methods for diagnosis and treatment of conditions related to the quality of aging and longevity” (Epitracker, Inc., priority 2018, dated 2024)
Square brackets hold non-standard residues; d marks the D form. Peptide text beside a SMILES is read from it. Hyp = O=C(O)[C@@H]1C[C@@H](O)CN1

What was measured:
[1] = Serum global metabolomics and complex lipid profiling: wild versus Navy dolphins (Welch's two-sample t-tests); assay type: in vivo, Bottlenose dolphins (Tursiops truncatus); details: metabolites significantly higher in wild (Sarasota Bay) than in Navy dolphins
[2] = Modified fish diet study: fold differences of serum metabolites; assay type: in vivo, Bottlenose dolphins (Tursiops truncatus); details: for Significant fold differences in serum between Month 0 and Month 1 in Modified Diet group: Month 1 vs Month 0

Row | Compound | Ratio of serum-based levels in wild versus Navy dolphins [1] | Significant fold differences in serum between Baseline and Modified Diet groups at Month 1 [2] | Significant fold differences in serum between Month 0 and Month 1 in Modified Diet group [2]
1 | CC(C)(O)C(O)C(=O)O (stereo not shown) [2,3-dihydroxyisovalerate] | 1.72 | 2.02 | 1.89
2 | NCC(O)CC[C@H](N)C(=O)O (stereo partly shown) [5-hydroxylysine] | 5.60 | 1.28 | 1.28
3 | N[C@@H](CC(O)C(=O)O)C(=O)O (stereo partly shown) [4-hydroxyglutamate] | 4.78 | 1.74 | 1.75
4 | O=C(O)[C@@H]1C[C@@H](O)CN1 (relative stereo) [Trans-4-hydroxyproline] | 4.17 | 1.46 | 1.52
5 | O=C(O)Cc1c[nH]cn1 [4-imidazoleacetate] | 5.94 |  | 3.94
6 | NC(=O)NCCCC[C@H](N)C(=O)O [Homocitrulline] | 1.25 |  | 1.32
7 | O=C(O)CCCCCCCCCCCCCCCCCCCCC(=O)O [Docosadioate (C22-DC), docosadioate] | 2.32 |  | 1.39
8 | lignoceroylcarnitine [Lignoceroylcarnitine (C24)] | 4.60 | 2.8 | 2.81
9 | Cn1cc(C(N)=O)ccc1=O [N1-Methyl-2-pyridone-5-carboxamide] | 1.39 | 1.38 | 
10 | O=C(O)CCCC(=O)C(=O)O [2-oxoadipate] | 6.51 |  | 1.25
11 | NCCCCC(=O)O [5-aminovalerate] | 6.46 | 1.35 | 1.68
12 | CCC(=O)NCC(=O)O [Propionylglycine] | 3.35 |  | 
13 | CC(=O)NCCc1c[nH]cn1 [N-acetylhistamine] | 8.93 | 5.36 | 7.68
14 | O=C(O)/C=C/c1cnc[nH]1 [Trans-urocanate] | 4.36 |  | 
15 | CS(=O)(=O)CC[C@H](N)C(=O)O [Methionine sulfone] | 1.35 | 1.42 | 1.48
16 | CCCCCCCCCCCCC(O)C(=O)O (stereo not shown) [2-hydroxymyristate] | 1.23 |  | 

Row | Compound | Ratio of serum-based levels in wild versus Navy dolphins [1] | Significant fold differences in serum between Baseline and Modified Diet groups at Month 1 [2] | Significant fold differences in serum between Month 0 and Month 1 in Modified Diet group [2]
17 | O=C(O)[C@@H]1C[C@@H](O)CN1C(=O)[C@@H]1CCCN1 [Prolyl-hydroxyproline] (H-Pro-[Hyp]-OH) | 2.66 | 1.44 | 1.25
18 | behenoylcarnitine [Behenoylcarnitine (C22)] | 2.73 | 1.32 | 1.48
19 | CCCCCCCCCCCCCCCC(=O)OCC(COP(=O)(O)OCCN)OC(=O)CCCCCCCCCCCCCCC (stereo not shown) [PE (16:0/16:0)] | 1.54 |  | 
20 | O=C(O)CCc1cnc[nH]1 [Imidazole propionate] | 4.52 |  | 3.48
21 | CCCCCCCCCCCCCCCCCCCC(=O)O [FFA (20:0)] | 2.62 |  | 
22 | O=C(O)CCCCCCCCCCCCCCCO [16-hydroxypalmitate] | 1.35 |  | 1.26
23 | N[C@@H](CCC(=O)NCC(=O)O)C(=O)O [Gamma-glutamylglycine] | 1.31 |  | 
24 | C[C@](N)(CO)C(=O)O [2-methylserine] | 2.58 | 1.52 | 1.62
25 | O=C(O)CCC1NC(=O)NC1=O (stereo not shown) [Hydantoin 5-propionic acid] | 1.83 |  | 
26 | CCCCC/C=C\C/C=C\C/C=C\C/C=C\CCCC(=O)O[C@H](CO/C=C\CCCCCCCCCCCCCC)COP(=O)(O)OCCN [1-(1-enyl-palmitoyl)-2-arachidonoyl-GPE (P-16:0/20:4)] |  | 2.01 | 1.93
27 | sphingomyelin (d17:2/16:0, d18:2/15:0) |  | 1.76 | 1.61
28 | CCCCCCCCCCCCCCCCC(=O)O [Margarate (C17:0), margarate] |  | 2.4 | 2.52
29 | cerotoylcarnitine [Cerotoylcarnitine (C26)] | 5.93 | 3.38 | 2.88
30 | sphingomyelin (d18:2/23:0, d18:1/23:1, d17:1/24:1) |  | 1.97 | 1.69
31 | N[C@@H](CCCCNCC(=O)O)C(=O)O [N6-carboxymethyllysine] | 2.3 | 1.78 | 2.11
32 | CCCCC/C=C\C/C=C\C/C=C\C/C=C\CCCC(=O)O[C@H](CO/C=C\CCCCCCCCCCCCCC)COP(=O)([O-])OCC[N+](C)(C)C [1-(1-enyl-palmitoyl)-2-arachidonoyl-GPC (P-16:0/20:4)] |  | 2.92 | 2.71
